In publication doi:10.1101/2022.04.27.489705 one finds binding data, which are given here for two molecules.

By UniProt entry, the sequences of proteins in these tests, tags left out.
UniProt E9Q557: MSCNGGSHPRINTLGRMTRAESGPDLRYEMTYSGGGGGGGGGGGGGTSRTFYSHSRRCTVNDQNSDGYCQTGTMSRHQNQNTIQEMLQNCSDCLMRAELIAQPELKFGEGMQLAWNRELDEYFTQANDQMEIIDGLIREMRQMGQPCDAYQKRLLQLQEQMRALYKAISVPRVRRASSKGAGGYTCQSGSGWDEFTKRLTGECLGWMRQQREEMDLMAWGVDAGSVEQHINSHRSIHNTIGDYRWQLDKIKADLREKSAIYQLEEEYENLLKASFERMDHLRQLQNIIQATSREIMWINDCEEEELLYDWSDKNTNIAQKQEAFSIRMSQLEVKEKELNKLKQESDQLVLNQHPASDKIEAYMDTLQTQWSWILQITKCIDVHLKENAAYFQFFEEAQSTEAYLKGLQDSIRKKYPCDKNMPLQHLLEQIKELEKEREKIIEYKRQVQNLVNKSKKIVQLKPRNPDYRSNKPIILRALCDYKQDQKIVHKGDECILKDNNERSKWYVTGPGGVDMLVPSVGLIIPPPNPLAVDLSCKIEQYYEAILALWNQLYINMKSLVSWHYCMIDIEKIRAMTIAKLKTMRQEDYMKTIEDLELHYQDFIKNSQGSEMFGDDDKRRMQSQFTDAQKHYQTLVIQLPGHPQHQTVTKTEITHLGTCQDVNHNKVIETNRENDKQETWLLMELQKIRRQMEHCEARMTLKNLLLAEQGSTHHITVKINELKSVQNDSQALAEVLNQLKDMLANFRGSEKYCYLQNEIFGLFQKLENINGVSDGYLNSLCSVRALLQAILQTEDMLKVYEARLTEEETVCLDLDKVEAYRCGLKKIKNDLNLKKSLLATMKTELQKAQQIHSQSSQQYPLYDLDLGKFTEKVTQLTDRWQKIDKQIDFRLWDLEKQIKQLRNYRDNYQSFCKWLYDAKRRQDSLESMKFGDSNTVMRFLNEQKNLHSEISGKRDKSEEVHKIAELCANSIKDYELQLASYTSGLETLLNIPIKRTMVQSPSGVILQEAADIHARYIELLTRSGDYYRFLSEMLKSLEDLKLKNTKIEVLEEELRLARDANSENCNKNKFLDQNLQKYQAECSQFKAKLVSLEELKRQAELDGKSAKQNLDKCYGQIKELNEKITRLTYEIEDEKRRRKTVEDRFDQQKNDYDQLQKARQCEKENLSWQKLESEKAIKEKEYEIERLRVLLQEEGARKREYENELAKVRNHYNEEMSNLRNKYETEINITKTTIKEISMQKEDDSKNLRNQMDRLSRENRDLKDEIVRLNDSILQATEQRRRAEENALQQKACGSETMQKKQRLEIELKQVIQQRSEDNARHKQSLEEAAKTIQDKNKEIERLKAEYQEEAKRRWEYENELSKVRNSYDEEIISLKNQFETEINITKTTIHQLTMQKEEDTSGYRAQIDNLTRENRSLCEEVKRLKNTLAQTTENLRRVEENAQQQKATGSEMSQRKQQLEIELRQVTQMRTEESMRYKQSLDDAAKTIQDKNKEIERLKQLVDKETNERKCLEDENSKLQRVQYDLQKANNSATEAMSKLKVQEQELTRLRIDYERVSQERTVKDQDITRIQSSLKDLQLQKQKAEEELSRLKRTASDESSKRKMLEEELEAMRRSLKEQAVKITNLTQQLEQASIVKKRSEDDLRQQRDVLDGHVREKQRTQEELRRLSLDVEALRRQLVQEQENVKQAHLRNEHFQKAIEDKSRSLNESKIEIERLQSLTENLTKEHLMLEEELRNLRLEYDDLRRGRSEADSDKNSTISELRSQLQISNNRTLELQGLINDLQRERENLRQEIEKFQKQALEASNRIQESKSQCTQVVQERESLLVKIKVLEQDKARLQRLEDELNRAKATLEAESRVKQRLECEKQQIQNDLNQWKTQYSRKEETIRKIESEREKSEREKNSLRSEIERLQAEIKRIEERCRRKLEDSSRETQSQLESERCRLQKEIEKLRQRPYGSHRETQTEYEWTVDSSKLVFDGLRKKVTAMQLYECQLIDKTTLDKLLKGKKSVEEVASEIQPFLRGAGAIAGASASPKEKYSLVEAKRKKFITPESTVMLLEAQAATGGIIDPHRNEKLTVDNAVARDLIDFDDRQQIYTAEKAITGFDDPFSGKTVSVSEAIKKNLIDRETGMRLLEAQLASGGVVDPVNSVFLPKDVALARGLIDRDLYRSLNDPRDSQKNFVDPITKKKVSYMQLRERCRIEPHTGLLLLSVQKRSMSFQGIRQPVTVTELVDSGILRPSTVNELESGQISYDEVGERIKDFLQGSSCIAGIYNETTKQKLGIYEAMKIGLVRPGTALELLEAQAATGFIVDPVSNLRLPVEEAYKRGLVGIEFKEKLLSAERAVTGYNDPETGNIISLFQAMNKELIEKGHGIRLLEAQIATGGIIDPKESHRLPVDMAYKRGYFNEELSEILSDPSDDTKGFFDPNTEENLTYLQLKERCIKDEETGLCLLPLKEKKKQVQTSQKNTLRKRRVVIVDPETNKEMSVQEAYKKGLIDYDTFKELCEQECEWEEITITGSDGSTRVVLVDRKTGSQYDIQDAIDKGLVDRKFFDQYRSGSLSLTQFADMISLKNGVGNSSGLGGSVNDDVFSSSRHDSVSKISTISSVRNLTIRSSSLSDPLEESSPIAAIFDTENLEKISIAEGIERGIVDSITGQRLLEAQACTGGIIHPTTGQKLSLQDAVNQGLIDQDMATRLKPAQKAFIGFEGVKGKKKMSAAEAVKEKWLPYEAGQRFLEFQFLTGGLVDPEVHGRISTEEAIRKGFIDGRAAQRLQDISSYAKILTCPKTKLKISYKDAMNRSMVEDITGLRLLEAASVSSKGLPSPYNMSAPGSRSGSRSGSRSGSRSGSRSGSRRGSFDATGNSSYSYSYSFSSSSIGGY

These are yes or no findings as the source states them, for the method shown. In cells and extracts the contact can be indirect. Some entries that bind do so weakly or less than the wild type.

In experiment [1] the target is T1, desmoglein 2 (mouse (endogenous in HL-1)) (UniProt O55111).
T1 sequence: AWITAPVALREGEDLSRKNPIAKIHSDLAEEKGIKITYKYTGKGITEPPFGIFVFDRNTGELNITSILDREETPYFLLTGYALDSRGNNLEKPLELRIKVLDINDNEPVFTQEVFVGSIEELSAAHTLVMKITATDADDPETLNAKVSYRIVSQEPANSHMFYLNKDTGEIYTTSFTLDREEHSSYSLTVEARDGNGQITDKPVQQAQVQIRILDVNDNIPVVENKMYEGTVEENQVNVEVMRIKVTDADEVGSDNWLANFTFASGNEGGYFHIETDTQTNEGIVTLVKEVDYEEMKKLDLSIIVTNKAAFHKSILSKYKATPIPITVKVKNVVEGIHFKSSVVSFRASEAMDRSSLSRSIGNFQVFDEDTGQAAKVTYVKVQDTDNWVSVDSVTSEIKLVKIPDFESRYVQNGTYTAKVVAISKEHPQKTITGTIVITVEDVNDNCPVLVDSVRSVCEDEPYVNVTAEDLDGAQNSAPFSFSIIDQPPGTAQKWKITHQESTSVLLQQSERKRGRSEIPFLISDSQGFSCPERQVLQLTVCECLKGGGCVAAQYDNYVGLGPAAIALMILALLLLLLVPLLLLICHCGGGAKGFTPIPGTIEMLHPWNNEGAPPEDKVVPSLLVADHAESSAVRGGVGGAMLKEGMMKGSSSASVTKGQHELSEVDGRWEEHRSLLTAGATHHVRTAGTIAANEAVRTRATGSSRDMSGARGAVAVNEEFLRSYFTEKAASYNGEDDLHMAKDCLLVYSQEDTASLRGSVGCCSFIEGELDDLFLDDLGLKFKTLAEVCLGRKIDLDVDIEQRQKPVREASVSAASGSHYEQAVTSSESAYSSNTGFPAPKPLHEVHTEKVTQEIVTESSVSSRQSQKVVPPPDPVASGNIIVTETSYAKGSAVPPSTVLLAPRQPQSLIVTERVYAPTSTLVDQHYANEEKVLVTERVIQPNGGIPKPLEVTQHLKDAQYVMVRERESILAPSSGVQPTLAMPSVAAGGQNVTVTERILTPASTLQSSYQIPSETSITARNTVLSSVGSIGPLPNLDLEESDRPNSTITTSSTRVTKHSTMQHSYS
The experiment can be described thus: co-IP.

The target of experiment [2] is desmoplakin (mouse (endogenous in HL-1)) (UniProt E9Q557). In words: co-IP.

B1: plakophilin 2 (protein, UniProt Q9CQ73 1-795)
chain: MAVPGSLAECGYIRTVLGQQILGHLDSSSLALPSEARLRLAGSSGRGDPAARSQRIQEQVQQTLARRGRSSAVSGNLHRTSSVPEYVYKLHVVENDFVGRQSPVTRDYDMLKAGMTATYGSRWGRAAAQYSSQKSVEERSWRQPLRRLEISPDSSPERAHYGHSEYQYAWRSHVVPGGRLTLPRYARSEILGLRQAGTARRPPGCGSFSDAVFDNGPLKPTMPTHPPGTSHSAGSLLEETTVRVSQARLQSTQSRTARSSWPRSSVRSSLREPGRMLTTAGQAAVGSGDAHGDRSVFADAQLGNADIEMTLERAVNMLDADHVPVSKISAAATFIQHESFQKSEARKRVNQLRGIPKLLQLLKLQNEDVQRAACGALRNLVFEDNDNKLEVAELNGVPRLLQVLKQTRDLETKKQITGLLWNLSSSDKLKHLMITEALLTLTESVIIPFSGWPEGDYPKANGLLDFDIFYNVTGCLRNMSSAGPDGRKMMRRCDGLIDSLVHYVRGTIADYQPDDKATENCVCILHNLSYQLEAELPEKYSQSIYMQNRNIQTNSNKSIGCFGSRSRKLKEQYQDLQMPEERSNPHGIEWLWHSIVIRMYLSLIAKSTRNYTQEASLGALQNLTAGGGPIPTLVARMVVQKENGLQHTRKMLHVGDPSVKKTAVSLLRNLSRNLSLQNEIAKETLPDLVSIIPDTVPSTDLLIETTASACYTLNNLMQNSYQNARDLLNTGGLQKIMTISIGEGYAPNKASKAASVLLYSLWAHTELHHAYKKAQFKKTDFVNSRTAKAYHSLKD
For the molecule B1, the binding entry in experiment [1] and in experiment [2] was “binds” each time.

B2: desmoglein 2 (protein, UniProt O55111 55-1122)
chain: AWITAPVALREGEDLSRKNPIAKIHSDLAEEKGIKITYKYTGKGITEPPFGIFVFDRNTGELNITSILDREETPYFLLTGYALDSRGNNLEKPLELRIKVLDINDNEPVFTQEVFVGSIEELSAAHTLVMKITATDADDPETLNAKVSYRIVSQEPANSHMFYLNKDTGEIYTTSFTLDREEHSSYSLTVEARDGNGQITDKPVQQAQVQIRILDVNDNIPVVENKMYEGTVEENQVNVEVMRIKVTDADEVGSDNWLANFTFASGNEGGYFHIETDTQTNEGIVTLVKEVDYEEMKKLDLSIIVTNKAAFHKSILSKYKATPIPITVKVKNVVEGIHFKSSVVSFRASEAMDRSSLSRSIGNFQVFDEDTGQAAKVTYVKVQDTDNWVSVDSVTSEIKLVKIPDFESRYVQNGTYTAKVVAISKEHPQKTITGTIVITVEDVNDNCPVLVDSVRSVCEDEPYVNVTAEDLDGAQNSAPFSFSIIDQPPGTAQKWKITHQESTSVLLQQSERKRGRSEIPFLISDSQGFSCPERQVLQLTVCECLKGGGCVAAQYDNYVGLGPAAIALMILALLLLLLVPLLLLICHCGGGAKGFTPIPGTIEMLHPWNNEGAPPEDKVVPSLLVADHAESSAVRGGVGGAMLKEGMMKGSSSASVTKGQHELSEVDGRWEEHRSLLTAGATHHVRTAGTIAANEAVRTRATGSSRDMSGARGAVAVNEEFLRSYFTEKAASYNGEDDLHMAKDCLLVYSQEDTASLRGSVGCCSFIEGELDDLFLDDLGLKFKTLAEVCLGRKIDLDVDIEQRQKPVREASVSAASGSHYEQAVTSSESAYSSNTGFPAPKPLHEVHTEKVTQEIVTESSVSSRQSQKVVPPPDPVASGNIIVTETSYAKGSAVPPSTVLLAPRQPQSLIVTERVYAPTSTLVDQHYANEEKVLVTERVIQPNGGIPKPLEVTQHLKDAQYVMVRERESILAPSSGVQPTLAMPSVAAGGQNVTVTERILTPASTLQSSYQIPSETSITARNTVLSSVGSIGPLPNLDLEESDRPNSTITTSSTRVTKHSTMQHSYS
In the case of B2, the binding entry in experiment [2] is “binds”.
